Experimental data reported in PMC4419654, “LSD1 and HY5 antagonistically regulate red light induced-programmed cell death in Arabidopsis” (Frontiers in Plant Science, 2015).
These are yes or no findings as the source states them, for the method shown.

Legend:
[1] = biological target: lesion simulating disease 1 (LSD1) (Arabidopsis (endogenous in Arabidopsis Col-0 plants)) (UniProt P94077); assay: condition: only control plants, without RL treatment; immunoblot of plant extract made without DTT; total protein of control (normal light) WT plants extracted without DTT; LSD1 detected
[2] = biological target: lesion simulating disease 1 (LSD1) (Arabidopsis (endogenous in Arabidopsis Col-0 plants)) (UniProt P94077); assay: condition: only with DTT (50 mM) in the extraction buffer; immunoblot of plant extract made with DTT; total protein of control, RL, DCMU and DCMU + RL treated WT plants extracted with 50 mM DTT in the extraction buffer; LSD1 detected

binding [1]: no binding
binding [2]: no binding
B1: lesion simulating disease 1 (LSD1) (natural protein, UniProt P94077 1-189, looked up)
chain: MKVADMQDQLVCHGCRNLLMYPRGASNVRCALCNTINMVPPPPPPHDMAHIICGGCRTMLMYTRGASSVRCSCCQTTNLVPAHSNQVAHAPSSQVAQINCGHCRTTLMYPYGASSVKCAVCQFVTNVNMSNGRVPLPTNRPNGTACPPSTSTSTPPSQTQTVVVENPMSVDESGKLVSNVVVGVTTDKK
notes: lesion simulating disease 1 (LSD1), C2C2 zinc finger protein with three zinc finger domains, Arabidopsis; detected with LSD1 antibody (Agrisera); source: endogenous, Arabidopsis WT plant total protein extract
